The data set deals with T1, Phi29 DNA polymerase-A411C/Q560C (Bacillus subtilis phage phi29) (UniProt P03680).
T1 sequence: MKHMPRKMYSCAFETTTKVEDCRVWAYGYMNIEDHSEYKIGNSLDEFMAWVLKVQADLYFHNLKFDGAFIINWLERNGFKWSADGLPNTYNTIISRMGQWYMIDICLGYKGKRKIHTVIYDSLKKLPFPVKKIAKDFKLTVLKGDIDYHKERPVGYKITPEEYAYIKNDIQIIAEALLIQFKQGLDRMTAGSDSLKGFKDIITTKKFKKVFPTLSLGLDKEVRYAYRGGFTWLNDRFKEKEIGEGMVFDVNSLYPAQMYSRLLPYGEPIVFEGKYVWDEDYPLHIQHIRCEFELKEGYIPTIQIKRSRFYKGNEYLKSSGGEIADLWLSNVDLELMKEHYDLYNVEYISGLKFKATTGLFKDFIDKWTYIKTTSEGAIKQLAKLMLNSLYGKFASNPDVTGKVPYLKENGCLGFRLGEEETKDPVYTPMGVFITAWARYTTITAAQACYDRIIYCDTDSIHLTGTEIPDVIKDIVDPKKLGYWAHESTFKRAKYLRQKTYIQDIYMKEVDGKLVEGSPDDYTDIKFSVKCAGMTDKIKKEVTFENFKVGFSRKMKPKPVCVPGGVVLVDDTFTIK
In words: EMSA. The following applies: 5' phosphate; four iSpC3 spacers between SEQ 44 and SEQ 45; native TBE PAGE, band E; 50 mM Tris pH 8, 20 mM (NH4)2SO4, 10 mM MgCl2, 4% glycerol, 1:1 at 400 nM, room temperature; purified recombinant protein; protein details: closed with TMAD; folded or branched DNA. In general terms: A gel shift assay detects complexes by their altered migration in electrophoresis.

The exact form of at least one protein or probe is not confirmed. Tags and fusion partners may be left off the protein sequences shown.

This note sets out measurements from patent US20170107569, “METHOD FOR ATTACHING ONE OR MORE POLYNUCLEOTIDE BINDING PROTEINS TO A TARGET POLYNUCLEOTIDE” (Oxford Nanopore Technologies Ltd., published 2017).

Regarding “GGTTAAACACCCAAGCAGACGCCTTTTTTTTTTCGTCCTGTCGCTGTGTCTCGGCGAGACACAGCGACAGGACG [polymerase DNA hairpin strand (Example 7)]”, the binding result is reported as “binds”.
